According to PMC4466796:
These are yes or no findings as the source states them, for the method shown. Binding seen in cells or lysates may run through a third protein. Tags and fused reporters may be left off the sequences shown.

Chains of the proteins cited; added tags and fusions are not shown. Lines headed by an entry give the natural chain unless they say otherwise; changes in a name come on top.
UniProt P15056: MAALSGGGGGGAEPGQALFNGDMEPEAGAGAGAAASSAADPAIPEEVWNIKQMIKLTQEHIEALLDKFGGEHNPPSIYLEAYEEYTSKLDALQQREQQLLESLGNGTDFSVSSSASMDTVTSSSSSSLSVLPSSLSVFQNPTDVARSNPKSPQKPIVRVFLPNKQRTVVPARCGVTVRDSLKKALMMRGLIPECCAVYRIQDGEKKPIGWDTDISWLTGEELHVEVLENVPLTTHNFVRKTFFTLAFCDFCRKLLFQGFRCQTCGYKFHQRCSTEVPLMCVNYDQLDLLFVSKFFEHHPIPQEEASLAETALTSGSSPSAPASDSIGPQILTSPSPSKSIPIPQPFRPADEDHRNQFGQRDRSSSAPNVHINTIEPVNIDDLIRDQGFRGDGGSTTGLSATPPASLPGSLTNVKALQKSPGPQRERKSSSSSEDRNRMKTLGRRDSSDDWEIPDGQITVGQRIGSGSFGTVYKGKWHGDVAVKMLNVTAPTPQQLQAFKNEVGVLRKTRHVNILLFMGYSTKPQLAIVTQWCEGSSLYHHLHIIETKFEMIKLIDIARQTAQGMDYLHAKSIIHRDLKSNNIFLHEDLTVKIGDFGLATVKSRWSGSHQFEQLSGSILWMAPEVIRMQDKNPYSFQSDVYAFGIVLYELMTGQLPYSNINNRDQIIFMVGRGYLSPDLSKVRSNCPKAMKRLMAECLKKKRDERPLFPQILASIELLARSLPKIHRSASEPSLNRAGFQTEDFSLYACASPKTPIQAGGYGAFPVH

Key:
FLAG-BRAF V600E = FLAG-BRAF V600E (UniProt P15056); assay: co-IP; Cos-1 co-transfected with FLAG-BRAF WT or V600E and Myc-MIG-6 or Myc-EBR, serum starved (reproducible after FBS incubation); anti-FLAG IP; blots for Myc and pEGFR (Y1173)
FLAG-BRAF WT = FLAG-BRAF WT (UniProt P15056); assay: as above

binding (FLAG-BRAF V600E): no binding
binding (FLAG-BRAF WT): no binding
B1: Myc-EBR (domain or fragment, UniProt Q9UJM3 284-399)
chain: PPRVPIPPRPVKPDYRRWSAEVTSSTYSDEDRPPKVPPREPLSPSNSRTPSPKSLPSYLNGVMPPTQSFAPDPKYVSSKALQRQNSEGSASKVPCILPIIENGKKVSSTHYYLLPE
